These are yes or no findings as the source states them, for the method shown. In cells and extracts the contact can be indirect. Some results given as binding are weak or reduced against the parent protein; the word gives no strength. Tags and fused reporters may be left off the sequences shown.

By UniProt entry, the sequences of proteins in these tests, tags left out.
UniProt O75369: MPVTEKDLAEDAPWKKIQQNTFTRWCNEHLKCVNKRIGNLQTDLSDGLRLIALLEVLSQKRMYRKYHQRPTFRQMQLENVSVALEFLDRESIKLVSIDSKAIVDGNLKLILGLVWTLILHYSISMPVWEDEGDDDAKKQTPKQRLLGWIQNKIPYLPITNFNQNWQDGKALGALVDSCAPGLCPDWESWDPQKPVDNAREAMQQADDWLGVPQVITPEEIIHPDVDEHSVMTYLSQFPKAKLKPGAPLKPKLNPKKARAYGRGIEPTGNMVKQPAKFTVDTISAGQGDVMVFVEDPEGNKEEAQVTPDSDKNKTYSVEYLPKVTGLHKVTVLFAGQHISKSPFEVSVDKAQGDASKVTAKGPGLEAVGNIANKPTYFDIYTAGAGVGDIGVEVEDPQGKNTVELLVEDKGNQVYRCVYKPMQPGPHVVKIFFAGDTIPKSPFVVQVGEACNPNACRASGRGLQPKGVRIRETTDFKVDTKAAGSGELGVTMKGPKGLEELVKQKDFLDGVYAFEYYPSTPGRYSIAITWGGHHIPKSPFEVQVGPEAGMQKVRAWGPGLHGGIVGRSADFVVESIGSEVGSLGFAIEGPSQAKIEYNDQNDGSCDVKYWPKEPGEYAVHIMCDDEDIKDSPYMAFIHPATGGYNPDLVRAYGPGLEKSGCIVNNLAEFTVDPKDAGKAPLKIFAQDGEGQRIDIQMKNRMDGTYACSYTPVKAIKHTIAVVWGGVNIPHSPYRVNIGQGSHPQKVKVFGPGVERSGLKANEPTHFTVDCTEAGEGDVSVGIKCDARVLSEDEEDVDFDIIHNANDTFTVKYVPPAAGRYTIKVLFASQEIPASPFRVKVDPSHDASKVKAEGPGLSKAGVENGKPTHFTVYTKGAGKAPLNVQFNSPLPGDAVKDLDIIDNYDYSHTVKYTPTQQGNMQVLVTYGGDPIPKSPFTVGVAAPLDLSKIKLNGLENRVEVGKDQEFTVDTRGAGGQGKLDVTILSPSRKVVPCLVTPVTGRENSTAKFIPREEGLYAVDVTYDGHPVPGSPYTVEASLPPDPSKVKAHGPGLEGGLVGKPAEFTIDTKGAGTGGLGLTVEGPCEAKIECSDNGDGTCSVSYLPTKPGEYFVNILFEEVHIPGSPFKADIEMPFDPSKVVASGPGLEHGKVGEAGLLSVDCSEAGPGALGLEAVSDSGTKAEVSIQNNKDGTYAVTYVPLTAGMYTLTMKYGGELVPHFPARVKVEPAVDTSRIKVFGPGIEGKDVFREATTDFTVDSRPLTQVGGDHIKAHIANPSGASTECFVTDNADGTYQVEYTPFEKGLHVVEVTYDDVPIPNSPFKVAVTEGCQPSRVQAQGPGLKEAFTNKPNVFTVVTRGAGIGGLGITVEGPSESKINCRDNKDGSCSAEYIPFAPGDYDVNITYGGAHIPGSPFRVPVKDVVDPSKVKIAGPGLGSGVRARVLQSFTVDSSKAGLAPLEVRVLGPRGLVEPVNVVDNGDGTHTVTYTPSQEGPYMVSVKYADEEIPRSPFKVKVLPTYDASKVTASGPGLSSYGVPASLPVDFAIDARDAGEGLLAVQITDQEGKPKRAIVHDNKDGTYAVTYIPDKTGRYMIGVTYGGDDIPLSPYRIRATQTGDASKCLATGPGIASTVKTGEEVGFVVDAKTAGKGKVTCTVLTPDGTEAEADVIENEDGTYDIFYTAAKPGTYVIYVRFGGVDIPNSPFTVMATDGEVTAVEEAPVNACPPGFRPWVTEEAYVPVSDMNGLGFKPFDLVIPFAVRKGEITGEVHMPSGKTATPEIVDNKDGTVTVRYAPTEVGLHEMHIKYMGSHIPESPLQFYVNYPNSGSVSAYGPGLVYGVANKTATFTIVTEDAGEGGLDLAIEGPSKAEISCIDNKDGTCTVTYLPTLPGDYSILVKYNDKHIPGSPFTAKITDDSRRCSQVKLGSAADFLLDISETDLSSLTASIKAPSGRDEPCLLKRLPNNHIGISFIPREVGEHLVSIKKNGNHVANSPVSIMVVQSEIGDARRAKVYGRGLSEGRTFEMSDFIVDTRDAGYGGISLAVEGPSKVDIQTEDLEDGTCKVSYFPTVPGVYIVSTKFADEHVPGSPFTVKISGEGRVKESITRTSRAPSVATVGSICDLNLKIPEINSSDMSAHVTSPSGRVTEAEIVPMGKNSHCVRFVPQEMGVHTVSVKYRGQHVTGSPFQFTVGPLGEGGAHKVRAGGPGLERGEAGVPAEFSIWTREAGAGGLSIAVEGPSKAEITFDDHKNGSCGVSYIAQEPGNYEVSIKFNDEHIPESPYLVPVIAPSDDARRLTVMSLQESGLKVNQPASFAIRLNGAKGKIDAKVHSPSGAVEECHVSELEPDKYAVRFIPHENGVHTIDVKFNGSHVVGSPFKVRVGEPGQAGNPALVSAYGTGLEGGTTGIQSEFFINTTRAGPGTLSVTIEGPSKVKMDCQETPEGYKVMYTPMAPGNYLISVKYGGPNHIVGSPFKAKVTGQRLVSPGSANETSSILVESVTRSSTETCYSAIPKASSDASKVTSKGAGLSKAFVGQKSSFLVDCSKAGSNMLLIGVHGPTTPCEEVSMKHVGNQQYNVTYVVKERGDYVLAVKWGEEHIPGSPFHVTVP

Here are results for 2 molecules from article PMC12244780.

The target in experiment [1] is T1, Flag-MTMR7 (myotubularin-related protein 7) (UniProt Q9Y216).
T1 sequence: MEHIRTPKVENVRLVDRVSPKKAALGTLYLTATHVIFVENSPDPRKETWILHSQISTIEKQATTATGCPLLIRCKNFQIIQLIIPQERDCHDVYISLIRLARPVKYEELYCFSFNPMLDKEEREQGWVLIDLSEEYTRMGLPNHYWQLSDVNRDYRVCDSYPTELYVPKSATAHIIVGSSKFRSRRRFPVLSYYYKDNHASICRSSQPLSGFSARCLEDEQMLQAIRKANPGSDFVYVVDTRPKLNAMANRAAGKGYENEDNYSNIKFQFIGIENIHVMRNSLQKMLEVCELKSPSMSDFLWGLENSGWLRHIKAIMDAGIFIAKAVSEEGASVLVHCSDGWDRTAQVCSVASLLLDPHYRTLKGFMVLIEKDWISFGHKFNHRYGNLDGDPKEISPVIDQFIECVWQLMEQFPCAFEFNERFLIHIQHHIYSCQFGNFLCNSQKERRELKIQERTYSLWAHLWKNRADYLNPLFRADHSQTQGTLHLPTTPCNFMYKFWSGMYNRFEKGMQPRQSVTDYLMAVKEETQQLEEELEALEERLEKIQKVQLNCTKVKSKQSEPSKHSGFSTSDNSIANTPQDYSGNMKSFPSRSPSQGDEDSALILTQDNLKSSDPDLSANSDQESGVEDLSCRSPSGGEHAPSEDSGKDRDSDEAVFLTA
As to the kind of experiment: co-IP; lysate of SSCs transfected with Flag-MTMR7 or empty vector; immunoprecipitated with Flag-beads; Western blot.

Experiment [2] deals with filamin B (FLNB) (human (endogenous in human SSC line)) (UniProt O75369). The experiment can be described thus: co-IP; lysate of SSCs transfected with Flag-MTMR7 or empty vector; immunoprecipitated with anti-FLNB antibodies; Western blot. On the technique in general: In western blotting, separated proteins are transferred to a membrane and probed.

As to “filamin B (FLNB) (from UniProt O75369 1-2602)”, the binding result in experiment [1] was “binds”.

B1: Flag-MTMR7 (myotubularin-related protein 7) (enzyme, UniProt Q9Y216 1-660)
chain: MEHIRTPKVENVRLVDRVSPKKAALGTLYLTATHVIFVENSPDPRKETWILHSQISTIEKQATTATGCPLLIRCKNFQIIQLIIPQERDCHDVYISLIRLARPVKYEELYCFSFNPMLDKEEREQGWVLIDLSEEYTRMGLPNHYWQLSDVNRDYRVCDSYPTELYVPKSATAHIIVGSSKFRSRRRFPVLSYYYKDNHASICRSSQPLSGFSARCLEDEQMLQAIRKANPGSDFVYVVDTRPKLNAMANRAAGKGYENEDNYSNIKFQFIGIENIHVMRNSLQKMLEVCELKSPSMSDFLWGLENSGWLRHIKAIMDAGIFIAKAVSEEGASVLVHCSDGWDRTAQVCSVASLLLDPHYRTLKGFMVLIEKDWISFGHKFNHRYGNLDGDPKEISPVIDQFIECVWQLMEQFPCAFEFNERFLIHIQHHIYSCQFGNFLCNSQKERRELKIQERTYSLWAHLWKNRADYLNPLFRADHSQTQGTLHLPTTPCNFMYKFWSGMYNRFEKGMQPRQSVTDYLMAVKEETQQLEEELEALEERLEKIQKVQLNCTKVKSKQSEPSKHSGFSTSDNSIANTPQDYSGNMKSFPSRSPSQGDEDSALILTQDNLKSSDPDLSANSDQESGVEDLSCRSPSGGEHAPSEDSGKDRDSDEAVFLTA
On to B1, for which the binding result in experiment [2] is recorded as “binds”.
